Assay results reported in PMC8003079, “Virus-Like Particles Produced Using the Brome Mosaic Virus Recombinant Capsid Protein Expressed in a Bacterial System” (International Journal of Molecular Sciences, 2021).
These are yes or no findings as the source states them, for the method shown. Some results given as binding are weak or reduced against the parent protein; the word gives no strength.

Assays:
[1] = biological target: recombinant brome mosaic virus (BMV) capsid protein (brome mosaic virus) (UniProt P03602); assay: cross-linking; 5 mM DSS, rCP in MST buffer pH 6.8; 5, 10, 15 and 30 min; SDS-PAGE; both purified
[2] = biological target: recombinant brome mosaic virus (BMV) capsid protein (brome mosaic virus) (UniProt P03602); assay: AFM; empty VLPs, 5 ug/mL, dried on mica, tapping mode in air; both purified
[3] = biological target: recombinant brome mosaic virus (BMV) capsid protein (brome mosaic virus) (UniProt P03602); assay: DLS; rCP 0.1 mg/mL, pH 6.8; hydrodynamic diameter, volume distribution; also after 24 h at 4 °C; both purified
[4] = biological target: recombinant brome mosaic virus (BMV) capsid protein (brome mosaic virus) (UniProt P03602); assay: cryo-TEM imaging; empty VLPs assembled without cargo by two-step dialysis; vitrified samples, 120 kV; both purified
[5] = biological target: recombinant brome mosaic virus (BMV) capsid protein (brome mosaic virus) (UniProt P03602); assay: DLS; empty VLPs assembled without cargo by two-step dialysis; sodium acetate buffer pH 4.8, 25 °C; both purified

Measured: binding

B1: recombinant brome mosaic virus (BMV) capsid protein (natural protein)
chain: MSTSGTGKMTRAQRRAAARRNRWTARVQPVIVEPLAAGQGKAIKAIAGYSISKWEASSDAITAKATNAMSITLPHELSSEKNKELKVGRVLLWLGLLPSVAGRIKACVAEKQAQAEAAFQVALAVADSSKEVVAAMYTDAFRGATLGDLLNLQIYLYASEAVPAKAVVVHLEVEHVRPTFDDFFTPVYR
notes: brome mosaic virus capsid (coat) protein; In the MST assay one copy was labelled with Monolith NT Protein Labeling Kit RED-NHS 647 and titrated with unlabelled rCP; also called rCP; CP; source: E. coli Rosetta 2(DE3)pLysS, purified (Ni-NTA, TEV digestion, second Ni-NTA); not shown: His tag (inferred from Ni-NTA purification; vector pMCSG48), N-terminal, cleaved
binds: [1] | [2] | [3] | [4] | [5]
